Reference: ChEMBL document CHEMBL5380863 (J Med Chem, 2023)
pIC50: −log10 of the molar value.

Chains of the proteins cited; added tags and fusions are not shown. Lines headed by an entry give the natural chain unless they say otherwise; changes in a name come on top.
UniProt O60674: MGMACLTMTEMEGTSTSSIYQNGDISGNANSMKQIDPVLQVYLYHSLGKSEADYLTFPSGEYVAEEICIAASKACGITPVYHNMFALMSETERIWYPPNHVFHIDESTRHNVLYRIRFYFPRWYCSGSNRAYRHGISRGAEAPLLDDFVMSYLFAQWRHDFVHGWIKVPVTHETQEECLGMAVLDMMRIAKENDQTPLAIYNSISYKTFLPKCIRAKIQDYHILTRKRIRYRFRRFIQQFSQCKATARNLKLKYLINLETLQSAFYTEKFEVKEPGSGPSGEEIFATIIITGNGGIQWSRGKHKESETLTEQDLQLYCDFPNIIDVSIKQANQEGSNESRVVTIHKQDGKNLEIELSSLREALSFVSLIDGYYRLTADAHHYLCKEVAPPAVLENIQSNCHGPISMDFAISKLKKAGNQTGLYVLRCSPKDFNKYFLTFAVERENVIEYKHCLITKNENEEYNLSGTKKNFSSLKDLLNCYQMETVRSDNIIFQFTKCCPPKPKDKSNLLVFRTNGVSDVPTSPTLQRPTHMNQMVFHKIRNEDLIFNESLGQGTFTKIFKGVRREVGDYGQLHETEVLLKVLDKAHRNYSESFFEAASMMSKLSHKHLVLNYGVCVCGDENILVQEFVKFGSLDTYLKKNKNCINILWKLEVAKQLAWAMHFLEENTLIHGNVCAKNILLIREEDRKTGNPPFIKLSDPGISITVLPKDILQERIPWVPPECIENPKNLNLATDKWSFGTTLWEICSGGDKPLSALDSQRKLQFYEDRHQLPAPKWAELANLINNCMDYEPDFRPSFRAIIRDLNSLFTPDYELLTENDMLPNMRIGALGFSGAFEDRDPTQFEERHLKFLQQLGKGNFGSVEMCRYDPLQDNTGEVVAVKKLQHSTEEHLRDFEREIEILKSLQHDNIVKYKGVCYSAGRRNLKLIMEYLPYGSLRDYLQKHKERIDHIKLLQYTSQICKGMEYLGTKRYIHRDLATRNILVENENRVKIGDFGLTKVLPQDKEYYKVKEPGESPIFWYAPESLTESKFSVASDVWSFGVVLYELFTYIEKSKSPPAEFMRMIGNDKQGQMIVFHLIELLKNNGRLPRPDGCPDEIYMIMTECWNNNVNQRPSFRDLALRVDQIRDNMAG

Experiments:
[1] = biological target: T1, Tyrosine-protein kinase JAK2 (Homo sapiens, UniProt O60674)
[2] = biological target: T1, Tyrosine-protein kinase JAK2; remark: listed apart in the source

- pIC50 [1]: 7.65
- pIC50 [2]: 8.27
SMILES: Cc1cnc(Nc2ccc(OCCCCCCC(=O)NO)cc2)nc1Nc1cccc(S(=O)(=O)NC(C)(C)C)c1
